Experimental data reported in US9623063B2, “Extracts from Ajuga reptans cell lines, their preparation and use” (I.R.B. ISTITUTO DI RICERCHE BIOTECNOLOGICHE S.r.l., priority 2005, dated 2017).
Some entries share one result that the patent states for a list of compounds.

Experiments:
[1] = Metal chelation, spectrophotometric (Fe2+); type: physicochemical
Text: (§1) The chelating activities of Ajuga reptans extracts in relation to Fe^2+, Fe^3+, Cu^2+ and Ni^2+ metal ions has been determined by means of spectrophotometric measurements using a Shimadzu 1770 UV spectrophotometer. The activities of chelating agents depends on the association constant (equilibrium) of their reactions with the metals according to the following reaction:
(§2) [formula] wherein Keq is the equilibrium constant equal to the ratio of concentrations at equilibrium of a complex and a product of equilibrium concentrations of metal ions and a chelator:
(§3) The method used for determining chelating activities is well documented in the literature (Korkina L G, Afarras'er I B. Antioxidant and chelating properties of flavonoids. Adv. Pharmacol., 1997, 38:151-63). The results are expressed as Keq (M^−1) calculated for a pure phenylpropanoid. This way the chelating activity against ferrous (Fe II), ferric (Fe III), copper (Cu II) and nickel ions has been calculated.

[2] = Metal chelation, spectrophotometric (Ni2+); type: physicochemical
Text: as §1, §2, §3

CC1OC(OC2C(O)C(COC(=O)C=Cc3ccc(O)c(O)c3)OC(OCCc3ccc(O)c(O)c3)C2O)C(OC2OC(CO)C(O)C(O)C2O)C(O)C1O (centres unmarked) [Isoteupolioside, isoteupolioside]
Chelating activity in relation to Fe2+, fold higher than rutin [1]: 3-4 fold
Chelating activity in relation to Ni2+, fold higher than rutin [2]: 3-4 fold
